According to PubChem BioAssay AID2685 (National Center for Advancing Translational Sciences (NCATS), 2010):
Hit rate of the full screen: of about 320,000 compounds, about 2,100 (0.66%) were called active. The shares of active, inactive and inconclusive entries below differ from those in the screen. Calls come from the whole dose curve; as a rule, active = well fitted inhibition curve with a large enough effect in the signal ratio, with a control signal flat (not every such curve was filed as active); inconclusive = small, poorly fitted or top-dose-only effect, or effect the other way, or a change in a side signal; inactive = flat fitted curve, though single readings scatter; the % refers to the signal ratio. Potencies of inconclusive entries are doubtful fits and often do not repeat.

assay: qHTS Assay for Lipid Storage Modulators in Drosophila S3 Cells; settings: BODIPY lipid droplet fluorescence, 18-24 h, cells fed with added oleic acid; lipid storage change, negative = inhibition: at 46.1 µM (top of the series) unless noted
Outline: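 Drosophila S3 cells loaded with oleic acid (400 uM, as added) and compounds at several concentrations; lipid droplets imaged by 488-nm laser-scanning cytometry, 500–530 nm intensity and object ratio to cell channel. Percent activity normalized to 20 uM Triacsin C.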
% is set by controls: 0 for no effect and ±100 for the full control effect; potency is the fitted concentration of half-maximal effect.

Lipid storage change, negative = inhibition, inconclusive:
CSc1nnc(SCC(=O)Nc2ccc3[nH]c(=O)[nH]c3c2)s1 19.4%
CCC(=O)Nc1sc2c(c1C#N)CC(C)(C)NC2(C)C -8.41%
COc1ccc(S(=O)(=O)Nc2ccc(S(=O)(=O)N3CCCC3)cc2)cc1 -3.52%
C/C=C/c1ccc(OCCCCOc2ccccc2F)c(OC)c1 31.1%
CCOC(=O)/C(C#N)=C1/C=CN(C)C(C)=N1 6.32%
O=C(CN1C(=O)NC2(CCCC2)C1=O)OCC(=O)c1cccc(Cl)c1
COc1ccc(OC)c(CNc2ncc(-c3cccc([N+](=O)[O-])c3)n2C)c1 -21.5%
CCc1nn(CCCC(=O)NCc2ccc(OC(C)C)cc2)c(=O)c2cc3occc3n12 -32.5%
O=C(CN1CCc2ccccc2C1)c1cccs1 9.52%
Cc1c(C(C)C)c(=O)n(-c2ccc(S(=O)(=O)NCc3ccccc3)cc2)n1C -40.7%
COc1cc(-c2nc(-c3ccc(-c4ccccc4)nc3OC)no2)cc(OC)c1OC -11%
CCOc1ccc(OCCNCc2ccc(OC(C)C(=O)N(C)C)c(OCC)c2)cc1 (stereo unspecified) 7.84%
CC(=O)Nc1ccc(S(=O)(=O)NCCC(=O)NCCc2ccc(F)cc2)cc1 16%
NC(=O)CC(NC(=O)c1cccc(Br)c1)c1ccc(N2CCN(c3ccc(F)cc3)CC2)c([N+](=O)[O-])c1 (stereo unspecified) -5.66%
O=S(=O)(c1ccc(F)cc1)c1nc(-c2ccco2)oc1Nc1ccc(F)cc1 13.1%
N#CCCNCC1(c2ccccc2)CCCC1 -36.5%
COc1ccc(C(=O)N2CCN(c3ccccn3)CC2)cc1[N+](=O)[O-] 19.2%
C=CCn1c(SCC(=O)NC2CC2)nnc1C1CC1 -22.9%
O=C(COC(=O)CCS(=O)(=O)c1ccccc1)Nc1ccc(N2CCCCC2)cc1 13.4%
CCOc1ccc(OCC)c(-c2c(=O)n(OCc3ccccc3Br)c3ccccc3[n+]2[O-])c1 -15.3%
Cc1nc(NC(=O)c2ccc(F)cc2)sc1C(=O)Nc1ccc2c(c1)CCC2 15.4%
CC(C)(C)NC(=O)COC(=O)/C=C/c1ccc(F)cc1 16.8%
C/C(=N\N1C(=O)c2ccccc2NC1c1ccccc1)c1ccccc1O (stereo unspecified) -2.58%
COCCN(C(=O)CCN1C(=O)C2CC=CCC2C1=O)c1c(N)n(CC(C)C)c(=O)[nH]c1=O (stereo unspecified) 3.53%
Cc1nc(C(F)(F)F)nc(Nc2ccc(N=Nc3ccccc3)cc2)c1C#N -7.31%
O=C(CNC1CCCCC1)Nc1ccc(S(=O)(=O)N2CCCCC2)cc1 34.5%
CCN(c1ccc(NC(=O)COC(=O)/C=C/c2cccs2)cc1)C(C)C 8.49%
COC(=O)c1ccc(C(=O)OC)c(NC(=O)CN(c2ccccc2)S(=O)(=O)N(C)C)c1 0.76%
O=C(c1ccc(CS(=O)(=O)c2ccccc2)o1)N1CCN(c2ncccn2)CC1 -4.26% [at 9.22 µM]
CC1=NOC2(C1)N(C)c1ccccc1C2(C)C (stereo unspecified) -5.86%
CCOc1ccccc1CNC(=O)C1CCCN(c2nnc(C)c3c(C)n(-c4ccccc4)nc23)C1 (stereo unspecified) -0.669%
CCNC(=O)c1sc2cc(C)ccc2c1Cl 2.54%
Cc1ccc(C(=O)Nc2cc([N+](=O)[O-])ccc2F)s1 23.7%
O=C(CCCOc1ccc(Cl)cc1Cl)NN1CCOCC1 12.3%

Three compounds already listed, sorted by length of the SMILES, smallest number first:
Lipid storage change, negative = inhibition, inconclusive:
Cc1nc(C(F)(F)F)nc(Nc2ccc(N=Nc3ccccc3)cc2)c1C#N -7.31%
COc1ccc(C(=O)N2CCN(c3ccccn3)CC2)cc1[N+](=O)[O-] 19.2%
COc1ccc(OC)c(CNc2ncc(-c3cccc([N+](=O)[O-])c3)n2C)c1 -21.5%

Next part.

Lipid storage change, negative = inhibition, inactive:
CC(C)CC(NC(=O)c1ccccc1NC(=O)c1ccccc1)C(=O)O (stereo unspecified)
CCOC(=O)C1CCN(c2cc3c(cc2NC(=O)c2ccc(F)cc2)n(C)c(=O)n3C)CC1
COc1cccc(-c2nc(=S)c3c(o2)CCCC3)c1
COc1ccccc1-c1nc(S(=O)(=O)c2ccccc2)c(N2CCOCC2)o1

Potency, inconclusive:
CCC1CCCCN1C(=S)NC(=O)c1cccc([N+](=O)[O-])c1 (stereo unspecified) 29.1 µM [falling, single point]
[O-]C1=N/[N+](=C/c2ccccc2Cl)CC1 1.16 µM [falling, single point]
CCNC(=O)CSc1ncnc2sccc12 4.11 µM [activator, partial curve]
CO/N=C/c1ccc(N2CCN(C(=O)c3ccc(C)cc3)CC2)c([N+](=O)[O-])c1 32.6 µM [falling, single point]
CN1CCN(CC(=O)N/N=C\c2c[nH]c3ccccc23)CC1 29.1 µM [rising, single point]
Cc1ccc(/C=N/n2c(-c3cccc(Cl)c3)n[nH]c2=S)o1 32.6 µM [falling, single point]
Cc1cccc(NC(=S)N2CCN(S(=O)(=O)c3cccc(F)c3)CC2)c1 14.6 µM [activator, single point]
CCCS(=O)(=O)N1CCCC(C(=O)NCCCN2CCN(c3ccc(F)cc3)CC2)C1 (stereo unspecified) 0.82 µM [activator, partial curve, poor fit]
COc1ccc(NS(=O)(=O)N2CCOCC2)cc1 23.1 µM [activator, single point]
COc1ccc(C(=O)Nc2ccccc2C(=O)NCc2cccnc2)cc1 29.1 µM [activator, single point]
COc1ccc(OC)c(S(=O)(=O)n2cnc3ccccc32)c1 2.06 µM [activator, partial curve]
Cc1ccc(-c2nc3ccccc3c(=O)n2Cc2ccccc2)cc1 29.1 µM [falling, single point]

Potency, active:
CCc1ccc(NC(=O)c2nc(S(=O)(=O)Cc3ccccc3)ncc2Cl)cc1 1.16 µM
